Results: paper PMC10778480
No constants are given. Whether binding was seen depends on the method and setting. Binding seen in cells or lysates may run through a third protein. Some entries that bind do so weakly or less than the wild type.

Target: Beclin1 (BECN1) (human (endogenous in T24/DDP)), Q14457
Test: co-IP; lysate of T24/DDP cells (RIPA lysis buffer); anti-Flag beads at 4 °C overnight, or antibody for 4-6 h then Protein A/G beads overnight; washed three times with cold lysis buffer; which protein was precipitated not given
Conditions: remark: other sources report otherwise

binding: binds
B1: Sirtuin 1 (SIRT1), Q96EB6 1-747 (enzyme)
chain: MADEAALALQPGGSPSAAGADREAASSPAGEPLRKRPRRDGPGLERSPGEPGGAAPEREVPAAARGCPGAAAAALWREAEAEAAAAGGEQEAQATAAAGEGDNGPGLQGPSREPPLADNLYDEDDDDEGEEEEEAAAAAIGYRDNLLFGDEIITNGFHSCESDEEDRASHASSSDWTPRPRIGPYTFVQQHLMIGTDPRTILKDLLPETIPPPELDDMTLWQIVINILSEPPKRKKRKDINTIEDAVKLLQECKKIIVLTGAGVSVSCGIPDFRSRDGIYARLAVDFPDLPDPQAMFDIEYFRKDPRPFFKFAKEIYPGQFQPSLCHKFIALSDKEGKLLRNYTQNIDTLEQVAGIQRIIQCHGSFATASCLICKYKVDCEAVRGDIFNQVVPRCPRCPADEPLAIMKPEIVFFGENLPEQFHRAMKYDKDEVDLLIVIGSSLKVRPVALIPSSIPHEVPQILINREPLPHLHFDVELLGDCDVIINELCHRLGGEYAKLCCNPVKLSEITEKPPRTQKELAYLSELPPTPLHVSEDSSSPERTSPPDSSVIVTLLDQAAKSNDDLDVSESKGCMEEKPQEVQTSRNVESIAEQMENPDLKNVGSSTGEKNERTSVAGTVRKCWPNRVAKEQISRRLDGNQYLFLPPNRYIFHGAEVYSDSEDDVLSSSSCGSNSDSGTCQSPSLEEPMEDESEIEEFYNGLEDEPDVPERAGGAGFGTDGDDQEAINEAISVKQEVTDMNYPSNKS
